Assay results as given in patent publication US10023615B2, “Efficient transport into white blood cells” (priority 2008, dated 2018).
Not every detail of the peptide structures is certain; ends, links or a residue may be inferred.

How the values were obtained:
[1] = test system: U937 lymphoma cells; assay: Uptake (internalization) of FITC-labeled TAT derived transporter constructs in U937 cells, fluorescence plate reader; assay type: cell-based; conditions: 0; 100 nM or 500 nM; U937 compared with HepG2 and HCT-116 (FIG. 1)
[2] = test system: U937 cells (lymphoma); assay: Exit of FITC-labeled TAT derived transporter constructs from U937 cells; assay type: cell-based
[3] = test system: J77 macrophage cells; assay: Uptake of FITC-labeled D-TAT over time in J77 macrophage cells vs HepG2 and A549; assay type: cell-based, mouse; conditions: 1 μM; J77 compared with HepG2 and A549 (FIG. 2)
[4] = test system: non WBC-lines; assay: Uptake and exit of FITC-D-TAT in non WBC-lines; assay type: cell-based; conditions: 10 μM FITC-D-TAT
[5] = test system: WBC-lines (white blood cells lines); assay: Uptake of FITC-labeled TAT derived transporter constructs in WBC-lines (white blood cells lines); assay type: cell-based; conditions: 11 different WBC-lines, 10 uM
[6] = test system: Monocytes (CD14); assay: Flow cytometry of FITC-transporter content in primary human white blood cells: monocytes; assay type: cell-based; conditions: 1 uM, 30 min, 37° C.
Excerpt: (§1) Primary human white blood cells (WBC) were obtained from whole blood after red blood cell lysis. […] Cells containing D-TAT-FITC and r3-L-TAT-FITC were finally analysed by flow cytometry to measure their respective transporter content.

[7] = test system: Neutrophils (CD15); assay: Flow cytometry of FITC-transporter content in primary human white blood cells: neutrophils; assay type: cell-based; conditions: 1 uM, 30 min, 37° C.
Excerpt: as §1

[8] = test system: Lymphocytes T (CD3); assay: Flow cytometry of FITC-transporter content in primary human white blood cells: lymphocytes T; assay type: cell-based; conditions: 1 uM, 30 min, 37° C.
Excerpt: as §1

[9] = test system: Lymphocytes B (CD19); assay: Flow cytometry of FITC-transporter content in primary human white blood cells: lymphocytes B; assay type: cell-based; conditions: 1 uM, 30 min, 37° C.
Excerpt: as §1

N=C(N)NCCC[C@@H](NC(=O)[C@@H](CCCCN)NC(=O)[C@@H](CCCCN)NC(=O)[C@@H](CCCNC(=N)N)NC(=O)[C@@H](CCCNC(=N)N)NC(=O)[C@@H](CCC(N)=O)NC(=O)[C@@H](CCCNC(=N)N)NC(=O)[C@@H](CCCNC(=N)N)NC(=O)[C@@H](CCCNC(=N)N)NC(=O)CCNC(=S)Nc1ccc2c(c1)C(=O)OC21c2ccc(O)cc2Oc2cc(O)ccc21)C(N)=O [FITC-D-TAT, FITC-βA-rrrqrrkkr]
uptake (internalization) [1]: higher internalized in WBC-line (U937; lymphoma) than in non WBC-lines | exit from cells ([2]; 500 nM FITC-D-TAT): an exit is not observed | exit from cells ([2]; 10 μM FITC-D-TAT): is observed at 10 μM FITC-D-TAT, and is HSPG-dependent | uptake (internalization) over time [3]: stronger internalized in WBC-line 077 macrophage cells) than in non WBC-lines | uptake (internalization) and exit [4]: are observed | uptake (internalization) [5]: internalized the D-TAT-FITC, in a time dependant manner | percentage of cells gated, lower left quadrant [6]: 39.68% | percentage of cells gated, lower right quadrant [6]: 31.71% | percentage of cells gated, upper left quadrant [6]: 9.24% | percentage of cells gated, upper right quadrant [6]: 19.37% | percentage of cells gated, lower left quadrant [7]: 47.57% | percentage of cells gated, lower right quadrant [7]: 21.53% | percentage of cells gated, upper left quadrant [7]: 17.03% | percentage of cells gated, upper right quadrant [7]: 13.87% | percentage of cells gated, lower left quadrant [8]: 47.46% | percentage of cells gated, lower right quadrant [8]: 18.01% | percentage of cells gated, upper left quadrant [8]: 22.7% | percentage of cells gated, upper right quadrant [8]: 11.82% | percentage of cells gated, lower left quadrant [9]: 57.22% | percentage of cells gated, lower right quadrant [9]: 8.26% | percentage of cells gated, upper left quadrant [9]: 32.40% | percentage of cells gated, upper right quadrant [9]: 2.12%
